Reference: PubChem BioAssay AID328 (DTP/NCI, 2004)
The list shows only some results of the screen, not a fair sample: it is rich in T/C values a quarter to a half above the control, in often repeated tests (any T/C) and in doses without a T/C. Further doses and runs are listed elsewhere. T/C is the treated group as % of the vehicle group. Some doses have a count of surviving animals in place of a T/C: the source holds a T/C of zero for them, seemingly a mark for toxic or unscored doses. Some survivor counts are full or nearly so, which does not show that the dose was tolerated: survival well below the control is almost never listed, so the zero probably covers shortened survival too. Survivors were counted at the toxicity check, usually on the fifth day, unless a day is given; later deaths do not show. Schedule codes are those of the source, read here as Q, the interval in days (D) or hours (H), X, the number of doses. Some entries were tested several times; the results are listed from low to high. Where survival is the endpoint, the PubChem record calls one and a half times the control and up active, and a quarter to a half above the control has no call in these data; cut-offs in other NCI protocols can differ. Some T/C values carry the count of animals alive at the toxicity check (mostly the fifth day); where none is given, no animal had died by that day. Marks such as (2×) say how often a value occurs here.

Tested on: BDF1 mice, P388 leukemia ip, median survival T/C
Test: NCI In Vivo Anticancer Drug Screen. Data for tumor model P388 Leukemia (intraperitoneal) in B6D2F1 (BDF1) mice
Settings: T/C endpoint: median survival time, higher T/C = longer survival
How it was run: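 T/C = treated-group survival ÷ vehicle-control survival; tumour transplanted into mice before dosing.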

[1] = dose: 200.0 mg/kg/injection, schedule: Q01DX009 (ip), vehicle: Klucel (hydroxypropylcellulose) (HPC)
[2] = dose: 400.0 mg/kg/injection, schedule: Q01DX009 (ip), vehicle: Klucel (hydroxypropylcellulose) (HPC)
[3] = dose: 50.0 mg/kg/injection, schedule: Q01DX001 (ip), vehicle: Klucel (hydroxypropylcellulose) (HPC)
[4] = dose: 50.0 mg/kg/injection, schedule: Q01DX005 (ip), vehicle: Klucel (hydroxypropylcellulose) (HPC)
[5] = dose: 50.0 mg/kg/injection, schedule: Q01DX009 (ip), vehicle: Klucel (hydroxypropylcellulose) (HPC)
[6] = dose: 50.0 mg/kg/injection, schedule: Q04DX002 (ip), vehicle: Klucel (hydroxypropylcellulose) (HPC)
[7] = dose: 50.0 mg/kg/injection, schedule: Q04DX003 (ip), vehicle: Klucel (hydroxypropylcellulose) (HPC)
[8] = dose: 100.0 mg/kg/injection, schedule: Q01DX005 (ip), vehicle: Klucel (hydroxypropylcellulose) (HPC)
[9] = dose: 100.0 mg/kg/injection, schedule: Q01DX009 (ip), vehicle: Klucel (hydroxypropylcellulose) (HPC)
[10] = dose: 100.0 mg/kg/injection, schedule: Q04DX002 (ip), vehicle: Klucel (hydroxypropylcellulose) (HPC)
[11] = dose: 100.0 mg/kg/injection, schedule: Q04DX003 (ip), vehicle: Klucel (hydroxypropylcellulose) (HPC)
[12] = dose: 200.0 mg/kg/injection, schedule: Q01DX001 (ip), vehicle: Klucel (hydroxypropylcellulose) (HPC)
[13] = dose: 200.0 mg/kg/injection, schedule: Q01DX005 (ip), vehicle: Klucel (hydroxypropylcellulose) (HPC)
[14] = dose: 200.0 mg/kg/injection, schedule: Q04DX002 (ip), vehicle: Klucel (hydroxypropylcellulose) (HPC)
[15] = dose: 200.0 mg/kg/injection, schedule: Q04DX003 (ip), vehicle: Klucel (hydroxypropylcellulose) (HPC)
[16] = dose: 400.0 mg/kg/injection, schedule: Q01DX001 (ip), vehicle: Klucel (hydroxypropylcellulose) (HPC)
[17] = dose: 400.0 mg/kg/injection, schedule: Q01DX005 (ip), vehicle: Klucel (hydroxypropylcellulose) (HPC)
[18] = dose: 400.0 mg/kg/injection, schedule: Q04DX002 (ip), vehicle: Klucel (hydroxypropylcellulose) (HPC)
[19] = dose: 400.0 mg/kg/injection, schedule: Q04DX003 (ip), vehicle: Klucel (hydroxypropylcellulose) (HPC)

C[C@@H]1C[C@@H]([C@H](O)CC2CC(=O)NC(=O)C2)C(=O)[C@@H](C)C1
survivor count (dose: 5.0 mg/kg/injection, schedule: Q01DX010 (ip), vehicle: saline): 6 of 6 | survivor count (dose: 10.0 mg/kg/injection, schedule: Q01DX010 (ip), vehicle: saline): 6 of 6 | survivor count (dose: 30.0 mg/kg/injection, schedule: Q04DX003 (ip), vehicle: Klucel (hydroxypropylcellulose) (HPC)): 6 of 10 | T/C (dose: 40.0 mg/kg/injection, schedule: Q01DX010 (ip), vehicle: saline): 128 % of control | survivor count (dose: 90.0 mg/kg/injection, schedule: Q01DX010 (ip), vehicle: saline): 6 of 6 | survivor count (dose: 120.0 mg/kg/injection, schedule: Q01DX009 (ip), vehicle: Klucel (hydroxypropylcellulose) (HPC)): 6 of 10 | survivor count (dose: 135.0 mg/kg/injection, schedule: Q01DX010 (ip), vehicle: saline): 5 of 6 | survivor count (dose: 180.0 mg/kg/injection, schedule: Q04DX003 (sc), vehicle: Klucel (hydroxypropylcellulose) (HPC)): 8 of 8 | survivor count (dose: 240.0 mg/kg/injection, schedule: Q04DX003 (ip), vehicle: Klucel (hydroxypropylcellulose) (HPC)): 7 of 10 | survivor count (dose: 300.0 mg/kg/injection, schedule: Q04DX003 (ip), vehicle: other): 0 of 6 | survivor count (dose: 300.0 mg/kg/injection, schedule: Q04DX003 (sc), vehicle: Klucel (hydroxypropylcellulose) (HPC)): 7 of 8 | survivor count (dose: 400.0 mg/kg/injection, schedule: Q04DX003 (ip), vehicle: other): 0 of 6 | survivor count (dose: 500.0 mg/kg/injection, schedule: Q01DX001 (ip), vehicle: Klucel (hydroxypropylcellulose) (HPC)): 5 of 8 | survivor count (dose: 500.0 mg/kg/injection, schedule: Q01DX001 (sc), vehicle: Klucel (hydroxypropylcellulose) (HPC)): 3 of 8

CNC(=S)N/N=C(/C)CCC/C(C)=N/NC(=S)NC
survivor count (dose: 50.0 mg/kg/injection, schedule: Q01DX009 (ip), vehicle: saline with Tween-80): 4 of 6 | survivor count (dose: 100.0 mg/kg/injection, schedule: Q01DX009 (ip), vehicle: saline with Tween-80): 3 of 6

Cc1ccc2c(Br)cc(Br)c(O)c2n1
survivor count [1]: 3 of 6 | survivor count [2]: 0 of 6

CC(=O)[C@H]1CC[C@H]2[C@@H]3C[C@H](C)C4=CC(=O)CC[C@]4(C)[C@H]3C(=O)C[C@]12C
T/C [3]: 90, 93 (2×), 95, 96 (2×), 97 (4×), 99, 100, 101 (2×), 104 (4×), 105, 106, 107 (2×), 108 (2×), 110, 111, 112 % of control | survivor count [3]: 5 of 6 | T/C [4]: 88 (2×), 89 [5 of 6 alive], 99, 100 (4×), 101 (2×), 102, 103 (3×), 104, 105, 106, 107 (2×), 108 (2×), 110 (3×), 111 (3×), 112, 113, 114 (2×), 116, 120, 121 % of control | survivor count [4]: 3 of 3 | T/C [5]: 91, 92, 93, 94 (2×), 95 (2×), 96, 97 (3×), 98 (4×), 100, 101 (2×), 101 [2 of 3 alive], 104, 105 (2×), 106 (2×), 107 (3×), 111, 113, 118, 119, 119 [2 of 3 alive], 120, 148 % of control | survivor count [5]: 5 of 6 and 3 of 3 | T/C [6]: 87 (2×), 92, 98, 99 (3×), 100 (6×), 102 (2×), 103, 105, 106 (4×), 108 (2×), 109, 111 (3×), 112 (2×), 113, 122 (2×), 123 % of control | survivor count [6]: 6 of 6 | T/C [7]: 87, 87 [2 of 3 alive], 89, 90, 94, 95 (2×), 96, 97, 98 (2×), 99 (4×), 100 (3×), 101, 102 [5 of 6 alive], 103, 104 (2×), 105 (2×), 106, 107, 110 (2×), 114, 118, 120, 125, 134 % of control | survivor count [7]: 3 of 3 and 6 of 6 | T/C (dose: 100.0 mg/kg/injection, schedule: Q01DX001 (ip), vehicle: Klucel (hydroxypropylcellulose) (HPC)): 87, 88, 90, 91, 92, 95, 96 (2×), 97, 98 (3×), 100 (2×), 101 (3×), 103 (2×), 104 (2×), 106, 107, 110, 111, 113, 115, 117 % of control | T/C [8]: 89, 94 (2×), 95, 99, 99 [5 of 6 alive], 100, 100 [5 of 6 alive], 101, 102 (2×), 104 (3×), 105 (3×), 107 (2×), 107 [4 of 6 alive], 108, 109, 109 [5 of 6 alive], 110, 111, 112 (2×), 113 (2×), 115, 118, 121, 123, 125 % of control | survivor count [8]: 6 of 6 | T/C [9]: 87, 88, 90, 91, 92, 94, 95 (3×), 97 (2×), 98, 99, 100 (2×), 101 (2×), 102, 103 (3×), 105, 106, 107 (2×), 109 (2×), 110 (3×), 111 (2×), 116, 122, 131 % of control | survivor count [9]: 3 of 3 | T/C [10]: 89, 92 (4×), 93, 95 (2×), 96, 97, 98 (3×), 100 (2×), 101 (3×), 102, 103 (2×), 104 (2×), 105, 107 (2×), 108 (2×), 111, 112, 113, 116, 125 % of control | survivor count [10]: 6 of 6 | T/C [11]: 87, 91, 92, 93 (2×), 94 (2×), 96 (4×), 97 (2×), 98, 99, 100 (3×), 102 (3×), 103 (3×), 104, 105, 106, 107 (2×), 108, 109 (2×), 110, 114 [5 of 6 alive], 118 % of control | survivor count [11]: 3 of 3 | T/C [12]: 88, 93, 94, 95, 96 (2×), 97 (2×), 98, 99 (2×), 100 (2×), 101 (4×), 102 (2×), 103 (2×), 107, 108 (2×), 110 (2×), 113 % of control | survivor count [12]: 6 of 6 | T/C [13]: 89, 91, 95, 98, 99 (3×), 100, 101 (2×), 102, 103 (2×), 104, 107 (4×), 108 (4×), 109, 110 (4×), 111 (2×), 113, 115, 122 % of control | survivor count [13]: 2 of 6, 3 of 3, 6 of 6 | T/C [1]: 87, 88, 89, 92 (2×), 94, 95, 97 [2 of 3 alive], 98 (4×), 99 (2×), 99 [2 of 3 alive], 100, 102 (2×), 105 (2×), 106, 106 [4 of 6 alive], 110 (3×), 111 (2×), 113 (2×), 118 (2×), 150 % of control | survivor count [1]: 3 of 3 | T/C [14]: 89, 92, 94, 98, 99 (2×), 100 (2×), 102 (2×), 103 (3×), 104 (2×), 105, 106 (3×), 108 [2 of 3 alive], 109, 111 (4×), 113 (2×), 116 (2×), 119, 120, 123, 125 % of control | survivor count [14]: 6 of 6 | T/C [15]: 87, 89 (2×), 92, 98 [5 of 6 alive], 100 (4×), 101 (2×), 102 (2×), 103 (3×), 104, 105 (5×), 106, 107 (2×), 108, 109 (2×), 110 (2×), 112, 114, 115, 121 % of control | survivor count [15]: 3 of 3 and 6 of 6 | T/C [16]: 89, 90, 92, 93, 95 [5 of 6 alive], 97, 100 (3×), 101 (2×), 102, 103, 104, 105, 106 (3×), 107 (2×), 108, 110, 112 (3×), 120 % of control | survivor count [16]: 0 of 3 and 6 of 6 | T/C [17]: 91 [4 of 6 alive], 93 (2×), 94 [4 of 6 alive], 97 [4 of 6 alive], 98, 99 (2×), 100, 104, 105, 107 (2×), 107 [5 of 6 alive], 108 [2 of 3 alive], 109, 110, 111 (2×), 111 [4 of 6 alive], 115, 115 [5 of 6 alive], 116, 119, 125 % of control | survivor count [17]: 0 of 3, 1 of 3, 2 of 6, 5 of 6, 6 of 6 | T/C [2]: 86, 87, 88, 89 (2×), 89 [5 of 6 alive], 92, 95, 100, 103, 106 (2×), 107, 108 (2×), 110, 111 [4 of 6 alive], 120, 120 % of control [5 of 6 alive] | survivor count [2]: 0 of 3, 0 of 6, 1 of 6, 2 of 6, 3 of 6, 2 of 3, 3 of 3 | T/C [18]: 88, 91 [2 of 3 alive], 95 [4 of 6 alive], 96, 98, 99, 101, 102, 103 (2×), 104, 105 [4 of 6 alive], 106, 106 [5 of 6 alive], 107 (2×), 108 (2×), 116 [5 of 6 alive], 117, 119, 125 % of control | survivor count [18]: 0 of 3, 1 of 6, 1 of 3, 2 of 6, 3 of 6, 2 of 3, 3 of 3, 6 of 6 | T/C [19]: 88 [5 of 6 alive], 89, 94, 96, 97 [2 of 3 alive], 98, 99 (2×), 100, 100 [2 of 3 alive], 100 [5 of 6 alive], 103 (2×), 104, 105 [4 of 6 alive], 106, 107, 108 [2 of 3 alive], 109, 110 (2×), 110 [5 of 6 alive], 111, 112 (2×), 114 [4 of 6 alive], 115, 116, 120, 121, 127, 129 % of control | survivor count [19]: 3 of 6, 3 of 3, 6 of 6

CN(c1ccccc1)P(=O)(N1CC1)N1CC1
T/C (dose: 16.5 mg/kg/injection, schedule: Q04DX003 (ip), vehicle: saline with Tween-80): 136 % of control

CSc1cccc(NC(=O)Oc2ccc([N+](=O)[O-])cc2Cl)c1
survivor count (dose: 25.0 mg/kg/injection, schedule: Q01DX009 (ip), vehicle: DMSO): 6 of 6

CCCCCCCCCCCC(=O)N(C)C
survivor count [2]: 6 of 6
